From US10945685B2, “System and method for normalizing standardized uptake values in brain positron emission tomography (PET) images” (New York University, priority 2018, dated 2021)
Some results come without the dose or concentration used.

System: tau
Assay: AD-NL classification from tau PET: ROC AUC and AD-NL ratio of PBP
Type: in vivo, human
Settings: AD vs NL
Protocol: In another embodiment, the average PBP of a particular diseased (or abnormal) group (e.g., an AD group) for a particular ROI may be compared to the PBP of a group of normal control (NL) subjects. For example, a ratio (R) of PBP may be obtained by: R=(average PBP of diseased or abnormal group)/(average PBP of NL group)
Standardized uptake value (SUV) images were obtained by normalizing tissue radioactivity concentration by injected dose and bodyweight. Estimates of tau deposition were determined for THK53151 with the 40-60 min SUV and for AV1451 with for the 80-100 min SUV. Standard SUVR was generated by using cerebellar cortex as reference. To control the variation of SUVR measures in THK5351 and AV1451 PET caused by the off-target binding in reference region, each subject's SUV images were first transferred into standardized SUVP images, using the Peak-alignment method (as described above). In order to compare the regional SUV distribution patterns on group level, the whole brain probability density function (PDFwb) of SUVP were computed for each subject by normalizing the histograms of a subject's SUVP with the total number of intracranial voxels of that subject. Finally, the group average whole brain probability density function (PDFwb) were computed by averaging the individual subjects' PDFwb within 4 compare groups (2 tracers×2 conditions). One important advantage of SUVP over SUVR is that the Peak-alignment method standardized the range of whole brain SUV (marked in FIG. 2) into [−3,3] approximately, regardless of tracer or disease condition, thus allowing universal cutoff for different tracers, while SUVR cutoffs are tracer-dependent (e.g. 1.5 for THK and 1.19 for AV1451). Here, 1.5 is used for SUVP cutoff, representing 1.5 times std from whole brain mode. The positive binding percentage: PBP=(number of positive bring voxels)/(total number of voxels), are computed for both SUVP and SUVR in different brain tissues.
To compare the classification accuracy of AD and NL using mean SUVR and PBP (SUVR and SUVP), the ROC curve was computed and the area under curve (AUC) was computed.
We also computed the diagnostic accuracy in terms of AUC, as specified in Method section. […] The AD-NL ratio obtained using (average PBP of AD group)/(average PBP of NL group).

SMILES | Diagnostic Accuracy (AUC), SUVP PBP (temporal lobe) | Diagnostic Accuracy (AUC), SUVR Mean (temporal lobe) | Diagnostic Accuracy (AUC), SUVR PBP (temporal lobe) | Diagnostic Accuracy (AUC), SUVP PBP (cerebral GM (global)) | Diagnostic Accuracy (AUC), SUVR PBP (cerebral GM (global))
CNc1ccc(-c2ccc3cc(OC[C@H](O)CF)ccc3n2)cn1 [THK5351] | 0.96 | 0.89 | 0.78 |  | 
[18F]c1ccc(-c2ccc3c(c2)[nH]c2ccncc23)cn1 [AV-1451] | 0.86 | 0.75 | 0.73 | 0.85 | 0.71
